Test results: publication PMC11088704, “Structural basis for the regulation of plant transcription factor WRKY33 by the VQ protein SIB1” (Communications Biology, 2024)
These are yes or no findings as the source states them, for the method shown.

Chains of the proteins cited; added tags and fusions are not shown.
UniProt Q8S8P5: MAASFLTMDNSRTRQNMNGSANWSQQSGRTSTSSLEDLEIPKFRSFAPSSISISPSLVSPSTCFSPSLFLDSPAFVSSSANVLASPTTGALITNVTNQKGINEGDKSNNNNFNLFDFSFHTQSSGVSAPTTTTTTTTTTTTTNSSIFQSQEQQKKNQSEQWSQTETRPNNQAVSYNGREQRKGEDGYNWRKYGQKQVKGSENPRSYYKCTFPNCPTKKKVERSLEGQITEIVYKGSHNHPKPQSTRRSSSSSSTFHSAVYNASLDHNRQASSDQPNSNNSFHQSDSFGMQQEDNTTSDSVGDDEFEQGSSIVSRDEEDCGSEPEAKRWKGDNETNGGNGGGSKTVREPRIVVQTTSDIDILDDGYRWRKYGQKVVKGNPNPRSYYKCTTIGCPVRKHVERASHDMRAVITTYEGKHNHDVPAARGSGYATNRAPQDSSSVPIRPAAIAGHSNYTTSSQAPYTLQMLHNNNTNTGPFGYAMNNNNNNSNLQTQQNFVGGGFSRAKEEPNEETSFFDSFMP

Biological target: WRKY33 C-terminal DNA-binding domain (WRKY33_C) (Arabidopsis thaliana) (UniProt Q8S8P5)
Assay: NMR titration; 2D 1H-15N HSQC of 15N-labeled WRKY33_C (or its mutants), 0.1 mM, with SIB1 or SIB1 peptides added at 2:1 (5:1 also for SIB1^40–60 and SIB1^55–69); 30 mM MES pH 6.0, 50 mM NaCl, 20 uM ZnSO4, 10% D2O, 25 °C; both purified

binding: no binding
B1: SIB1^58–67 decapeptide (VQ motif) (peptide)
peptide: FRELVQELTG
